Consider five molecules from paper PMC13034042.

Chains of the proteins cited; added tags and fusions are not shown.
UniProt P14120: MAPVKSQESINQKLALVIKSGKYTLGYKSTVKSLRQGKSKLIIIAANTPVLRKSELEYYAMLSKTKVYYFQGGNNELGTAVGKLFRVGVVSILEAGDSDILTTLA

These are yes or no findings as the source states them, for the method shown. Binding seen in cells or lysates may run through a third protein. A yes stands for co-enrichment or nearness to the bait. Other partners may have been found. For part of these data: Sequences can lack the tags named with a protein.

Common to all, as to experiment: proximity labelling; TurboID-fused bait expressed from a centromeric CUP1-promoter plasmid in S. cerevisiae YDK11-5A; 500 μM copper sulphate and 500 μM biotin for 1 h at 30°C; biotinylated proteins purified on streptavidin agarose and identified by LC-MS/MS; enrichment against the GFP-TurboID and NLS-GFP-TurboID type controls
Test [1] concerns the target T1, TurboID-tagged Tsr4 (both baits) (S. cerevisiae) (UniProt P25040).
T1 sequence: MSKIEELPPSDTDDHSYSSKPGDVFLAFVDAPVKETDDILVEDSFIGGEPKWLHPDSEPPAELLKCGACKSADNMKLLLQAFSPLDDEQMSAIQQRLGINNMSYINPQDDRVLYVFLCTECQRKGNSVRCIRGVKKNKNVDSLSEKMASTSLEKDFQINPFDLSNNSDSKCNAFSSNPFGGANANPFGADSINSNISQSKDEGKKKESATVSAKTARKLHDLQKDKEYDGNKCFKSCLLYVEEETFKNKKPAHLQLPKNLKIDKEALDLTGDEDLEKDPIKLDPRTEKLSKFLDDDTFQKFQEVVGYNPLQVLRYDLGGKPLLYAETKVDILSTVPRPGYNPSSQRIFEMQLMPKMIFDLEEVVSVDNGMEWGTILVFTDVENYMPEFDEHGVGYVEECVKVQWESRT

The target in test [2] is T2, Rpl38-TurboID (S. cerevisiae) (UniProt P49167).
T2 sequence: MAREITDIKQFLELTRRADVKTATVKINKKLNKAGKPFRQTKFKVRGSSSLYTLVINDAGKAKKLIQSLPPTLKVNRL

In test [3] the target is T3, Bcl1-TurboID (S. cerevisiae) (UniProt P53962).
T3 sequence: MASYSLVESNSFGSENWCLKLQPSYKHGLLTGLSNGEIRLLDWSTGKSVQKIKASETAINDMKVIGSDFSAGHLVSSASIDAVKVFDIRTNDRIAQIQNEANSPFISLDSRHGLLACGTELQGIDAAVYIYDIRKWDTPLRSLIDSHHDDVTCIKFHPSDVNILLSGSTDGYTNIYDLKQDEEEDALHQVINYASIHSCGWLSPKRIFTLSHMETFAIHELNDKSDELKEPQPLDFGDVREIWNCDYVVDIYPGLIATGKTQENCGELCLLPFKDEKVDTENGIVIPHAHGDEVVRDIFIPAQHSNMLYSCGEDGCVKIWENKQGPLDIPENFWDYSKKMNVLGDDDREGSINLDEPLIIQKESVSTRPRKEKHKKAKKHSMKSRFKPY

In test [4] the target is T4, TurboID-tagged Acl4 (both baits) (S. cerevisiae) (UniProt Q03771).
T4 sequence: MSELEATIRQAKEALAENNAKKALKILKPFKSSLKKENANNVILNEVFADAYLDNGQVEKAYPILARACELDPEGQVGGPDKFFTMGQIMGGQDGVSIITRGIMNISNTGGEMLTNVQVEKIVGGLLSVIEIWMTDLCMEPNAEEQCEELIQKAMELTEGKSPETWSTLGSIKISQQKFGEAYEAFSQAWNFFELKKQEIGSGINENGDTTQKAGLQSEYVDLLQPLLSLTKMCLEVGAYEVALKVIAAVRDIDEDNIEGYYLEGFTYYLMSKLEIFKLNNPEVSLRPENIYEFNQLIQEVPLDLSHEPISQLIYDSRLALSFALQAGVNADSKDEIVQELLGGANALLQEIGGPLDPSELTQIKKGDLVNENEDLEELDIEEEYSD

In test [5] the target is T5, TurboID-tagged Yar1 (both baits) (S. cerevisiae) (UniProt P46683).
T5 sequence: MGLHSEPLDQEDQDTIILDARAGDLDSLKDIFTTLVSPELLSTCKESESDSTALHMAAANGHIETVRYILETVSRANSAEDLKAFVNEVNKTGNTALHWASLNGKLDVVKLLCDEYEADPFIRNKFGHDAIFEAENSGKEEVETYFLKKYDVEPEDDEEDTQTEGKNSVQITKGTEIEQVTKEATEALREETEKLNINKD

Test [6] addresses Rpl30-TurboID (S. cerevisiae) (UniProt P14120).

B1: Rps2 (endogenous) (protein, UniProt P25443 1-254)
chain: MSAPEAQQQKRGGFGGRNRGRPNRRGPRNTEEKGWVPVTKLGRLVKAGKITTIEEIFLHSLPVKEFQIIDTLLPGLQDEVMNIKPVQKQTRAGQRTRFKAVVVVGDSNGHVGLGIKTAKEVAGAIRAGIIIAKLSVIPIRRGYWGTNLGQPHSLATKTTGKCGSVTVRLIPAPRGSGIVASPAVKKLLQLAGVEDVYTQSNGKTRTLENTLKAAFVAIGNTYGFLTPNLWAEQPLPVSPLDIYSDEASAQKKRF
In the case of B1, the binding result in test [1] is listed as “binds”.

B2: Kap121 (endogenous) (protein, UniProt P32337 1-1089)
chain: MSALPEEVNRTLLQIVQAFASPDNQIRSVAEKALSEEWITENNIEYLLTFLAEQAAFSQDTTVAALSAVLFRKLALKAPPSSKLMIMSKNITHIRKEVLAQIRSSLLKGFLSERADSIRHKLSDAIAECVQDDLPAWPELLQALIESLKSGNPNFRESSFRILTTVPYLITAVDINSILPIFQSGFTDASDNVKIAAVTAFVGYFKQLPKSEWSKLGILLPSLLNSLPRFLDDGKDDALASVFESLIELVELAPKLFKDMFDQIIQFTDMVIKNKDLEPPARTTALELLTVFSENAPQMCKSNQNYGQTLVMVTLIMMTEVSIDDDDAAEWIESDDTDDEEEVTYDHARQALDRVALKLGGEYLAAPLFQYLQQMITSTEWRERFAAMMALSSAAEGCADVLIGEIPKILDMVIPLINDPHPRVQYGCCNVLGQISTDFSPFIQRTAHDRILPALISKLTSECTSRVQTHAAAALVNFSEFASKDILEPYLDSLLTNLLVLLQSNKLYVQEQALTTIAFIAEAAKNKFIKYYDTLMPLLLNVLKVNNKDNSVLKGKCMECATLIGFAVGKEKFHEHSQELISILVALQNSDIDEDDALRSYLEQSWSRICRILGDDFVPLLPIVIPPLLITAKATQDVGLIEEEEAANFQQYPDWDVVQVQGKHIAIHTSVLDDKVSAMELLQSYATLLRGQFAVYVKEVMEEIALPSLDFYLHDGVRAAGATLIPILLSCLLAATGTQNEELVLLWHKASSKLIGGLMSEPMPEITQVYHNSLVNGIKVMGDNCLSEDQLAAFTKGVSANLTDTYERMQDRHGDGDEYNENIDEEEDFTDEDLLDEINKSIAAVLKTTNGHYLKNLENIWPMINTFLLDNEPILVIFALVVIGDLIQYGGEQTASMKNAFIPKVTECLISPDARIRQAASYIIGVCAQYAPSTYADVCIPTLDTLVQIVDFPGSKLEENRSSTENASAAIAKILYAYNSNIPNVDTYTANWFKTLPTITDKEAASFNYQFLSQLIENNSPIVCAQSNISAVVDSVIQALNERSLTEREGQTVISSVKKLLGFLPSSDAMAIFNRYPADIMEKVHKWFA
On to B2, for which the binding entry in test [2] and in test [3] was “binds” throughout.

B3: Mak16 (endogenous) (protein, UniProt P10962 1-306)
chain: MSDEIVWQVINQSFCSHRIKAPNGQNFCRNEYNVTGLCTRQSCPLANSKYATVKCDNGKLYLYMKTPERAHTPAKLWERIKLSKNYTKALQQIDEHLLHWSKFFRHKCKQRFTKLTQVMITERRLALREEERHYVGVAPKVKRREQNRERKALVAAKIEKAIEKELMDRLKSGAYGDKPLNVDEKVWKKIMGQMEEENSQDEEEDWDEEEESDDGEVEYVADDGEGEYVDVDDLEKWLADSDREASSASESESDSESESDSDSDEENKNSAKRRKKGTSAKTKRPKVEIEYEEEHEVQNAEQEVAQ
B3: in test [4], the binding entry is recorded as “binds”.

B4: Rps3 (endogenous) (protein, UniProt P05750 1-240)
chain: MVALISKKRKLVADGVFYAELNEFFTRELAEEGYSGVEVRVTPTKTEVIIRATRTQDVLGENGRRINELTLLVQKRFKYAPGTIVLYAERVQDRGLSAVAQAESMKFKLLNGLAIRRAAYGVVRYVMESGAKGCEVVVSGKLRAARAKAMKFADGFLIHSGQPVNDFIDTATRHVLMRQGVLGIKVKIMRDPAKSRTGPKALPDAVTIIEPKEEEPILAPSVKDYRPAEETEAQAEPVEA
B4: the binding result in test [5] is “binds”.

B5: Kap119 (endogenous) (protein, UniProt P46970 1-1048)
chain: MDITELLQCFACTLDHNAAVRTNAETHLKNASKVPGFLGACLDIIAADEVPENIKLSASLYFKNKITYGWSAGARQGSNELLDSHVDPDEKPVVKDMLIKTMVSVSKTSPRCIRVLKSALTVIISEDYPSKKWGNLLPNSLELLANEDITVTYVGLLCLAEIFRTYRWKNNDERQDLEELILNYFPALLNYGANVLFQDGKYMNNEQIGELVKLIIKIYKFVSYHDLPFTLQRSESFTPWACFFVSIIQQPLPQEVLAISDIEVRSKNPWVKCKKWALANLYRLFQRYASTSLTRKFQYDEFKQMYCEEFLTQFLQVVFDQIEKWGTGQLWLSDECLYYILNFVEQCVVQKTTWKLVGPHYNVILQHVIFPLLKPTAETLEAFDNDPQEYINRNMDFWDVGYSPDLAALALLTTCVTKRGKTTLQPTLEFMVSTLQSAVGDYNNIMLDNALQIESCLRIFSSIIDRLITKDSPFASEMEKFILTYVLPFFKSQYGFLQSRVCDICSKLGSMDFKDPVITSTIYEGVMNCLNNSSNSLPVELTAALALQTFISDDQFNMKLSEHVVPTMQKLLSLSNDFESDVISGVMQDFVEQFAEQLQPFGVELMNTLVQQFLKLAIDLHETSNLDPDSFTNVDSIPDESDKQMAALGILSTTISILLSFENSPEILKNLEQSFYPAAEFILKNDIEDFYRECCEFVENSTFLLRDITPISWKILELIGECNRKPDSMVSYYLSDFMLALNNILIYGRNELKKNEFYTKIIFEIYQKAVTAEDNSLDDLRVVFDLSQELVLALDDSLPQQYRERLLADVVGSILTQKNELKTNVVFSVTAFNVVISNMITEPLITLQYLKQQGCLEIFFQTWITDYIPNYKRCYDIKLSVLALLKIILKLESNDYSVLNLENLVPQLGSIVTQLASRLPTALRQLANQRKEFSSSGFEEDTKWDENFLDVGDDDENDDEGDLTEKYLELIKNRADSLDFVDGYDAKETFDDLEEDPLTGSILDTVDVYKVFKESIANLQHVDSNRYQGILRHLTPADQELFMGIMNA
As for B5, the binding entry in test [6] is given as “binds”.
